# According to PubChem BioAssay AID1487 (National Center for Advancing Translational Sciences (NCATS), 2009):
# The other results are listed elsewhere or left out. Further columns of the screen follow, without active or inactive calls. Most of these compounds were active or inconclusive in the main read-out, so they are no random draw. Words in brackets tell the shape of the fitted curve; partial curves, single points and poor fits give uncertain potencies.
# Assay: qHTS Assay for Modulators of Lamin A Splicing
# Details: HeLa LMNA splicing GFP/RFP minigene ratio, 48 h
# In short: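 S3 HeLa stable clones carrying a lamin A-EGFP splicing minigene plus DsRed2 were seeded at 600 cells/well in Opti-MEM with 2% FBS, pin-dosed and incubated 48 h at 37°C. Acumen cytometry (488 nm) gave the GFP/RFP total-intensity ratio.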
# [1] = measured here: GFP splicing reporter channel
# [2] = measured here: RFP viability control channel
Structure (SMILES),AC50 [1],AC50 [2]
COc1cccc(CC(NC(C)=O)C(=O)NC2CCN(C(=O)C3CC3)CC2)c1OC (configuration not stated),"0.794 µM [falling, full curve, poor fit]","0.0178 µM [falling, full curve, poor fit]"
O=C(Nc1ccc(-c2nc3cccnc3s2)cc1)c1ccco1,,"14.1 µM [rising, single point]"
C/C(CCN1CCCCc2nc(C)c(C)cc21)=N\O[C@@H](C)CN1CCCCc2nc(C)c(C)cc21,"35.5 µM [rising, single point]","17.8 µM [rising, single point]"
CCCCn1nc2cc(C(=O)N[C@H](C)C3CCCCC3)ccc2c1OCC,,"14.1 µM [rising, partial curve, poor fit]"
C=CCC(=O)N1CCCC(CNC(=O)c2ccc(-c3ccccc3)cc2)C1 (configuration not stated),,"10 µM [falling, partial curve, poor fit]"
CCOc1ccccc1/C=N/NC(=O)c1cccc(Cl)c1,,"6.31 µM [rising, partial curve, poor fit]"
c1ccc(-c2nc3cc4ccccc4cc3[nH]2)nc1,,"0.141 µM [rising, full curve, poor fit]"
COc1cccc(/C=N/Nc2cc(-n3nc(C)cc3-c3ccccc3)ncn2)c1O,,"11.2 µM [rising, partial curve]"
COc1ccc(C(=O)Nc2nnc(S(=O)(=O)N(CC(C)C)c3ccccc3)s2)cc1,,"5.62 µM [falling, partial curve, poor fit]"
CCN(CC)S(=O)(=O)c1ccc(C)c(NC(=O)Cn2c(=O)cnc3ccccc32)c1,"35.5 µM [rising, single point]","35.5 µM [rising, single point]"
COc1ccc(OC)c(C2C(C(=O)Nc3ccccc3OC)=C(C)Nc3c(C(=O)Nc4ccc(F)cc4)cnn32)c1 (configuration not stated),,"0.0891 µM [rising, full curve, poor fit]"
C/C(=N/N1CCN(Cc2cccc3ccccc23)CC1)c1cccnc1,"0.158 µM [rising, full curve, poor fit]",
O=C(NNC(=S)NC1CCCCC1)c1cccc(S(=O)(=O)Nc2ccccc2Cl)c1,,"25.1 µM [rising, partial curve]"
Cc1sc2nc(CN3CCCC3)nc(NCc3ccncc3)c2c1C,,"7.94 µM [rising, partial curve, poor fit]"
Cc1n[nH]c(C)c1S(=O)(=O)N1CCCC(C(=O)NCc2ccccc2Cl)C1 (configuration not stated),"11.2 µM [rising, single point]","14.1 µM [rising, single point]"
CCCc1cc(C(=O)Nc2cc(Br)ccc2O)no1,,"35.5 µM [rising, single point]"
Cc1ccc2nc(NC(=O)CCn3c(=O)sc4ccccc43)sc2c1,,"12.6 µM [rising, single point]"
O=C(Nc1cccc(F)c1)c1ccc(-c2ccccc2C(F)(F)F)o1,"14.1 µM [rising, single point]","14.1 µM [rising, partial curve]"
COc1ccc(NS(=O)(=O)c2ccc3oc(Nc4ccc5c(c4)OCCO5)nc3c2)cc1,,"7.08 µM [rising, partial curve]"

Structure (SMILES),AC50 [1],AC50 [2]
Cc1ccccc1NC(=O)C(NC1CCCCC1)C(C)C (configuration not stated),"0.0891 µM [falling, full curve, poor fit]","0.0891 µM [falling, full curve]"
Fc1cccc(Cl)c1CSc1ccc2nnc(-c3ccccn3)n2n1,,"2.82 µM [rising, single point]"
Cc1ccc(-n2nnc3c(=O)n(Cc4cccc(C)c4)cnc32)cc1,,"2.24 µM [rising, partial curve, poor fit]"
O=C(CSC1=NCCN1)NC12CC3CC(CC(C3)C1)C2,"14.1 µM [rising, single point]","15.8 µM [rising, partial curve]"
CCCCNC(=S)NCc1ccc2[nH]c(C)cc2c1,,"20 µM [rising, single point]"
Cc1cccc(-c2nc(SCC(=O)NCc3ccco3)c3c(=O)n(C)c(=O)n(C)c3n2)c1,"20 µM [rising, partial curve, poor fit]","22.4 µM [rising, single point]"
CC(c1ccccc1)n1c(SCC(=O)N2CC(=O)Nc3ccccc32)nc2ccccc2c1=O (configuration not stated),"35.5 µM [rising, single point]",
Cc1nc(-c2c(-c3ccc(O)cc3O)noc2C(F)(F)F)cs1,,"14.1 µM [rising, single point]"
CCOC(=O)c1sc(NC(=O)Cc2ccc(C)cc2)nc1C,,"0.00398 µM [falling, full curve, poor fit]"
CC1=CC(C)(C)N(S(=O)(=O)c2ccc(C)cc2)c2cc(C)ccc21,"5.01 µM [falling, full curve, poor fit]","0.01 µM [falling, full curve, poor fit]"
Cc1nn(-c2ccccc2)c(N2CCCC2)c1/C=N/NC(=O)c1cccc(S(=O)(=O)Nc2ccc(Cl)cc2)c1,,"28.2 µM [rising, single point]"
COc1cc(C(=O)N/N=C\c2ccccc2)c([N+](=O)[O-])c(OC)c1OC,,"35.5 µM [rising, single point]"
COc1ccc(CNC(=O)c2cc3c(=O)n(Cc4ccc(OC)cc4)ccc3nc2C)cc1,,"35.5 µM [falling, single point]"
CCCCCCNC(=O)CC(c1ccccc1)c1cc(Br)ccc1O (configuration not stated),"35.5 µM [falling, single point]","35.5 µM [falling, single point]"
CC(=O)Nc1nc(NC(=O)/C=C/c2ccccc2)n(-c2ccccc2)n1,"31.6 µM [rising, single point]","35.5 µM [rising, single point]"
COc1ccc(CC(=O)Nc2ccc(-c3ccc4nnc(C)n4n3)cc2)cc1OC,,"14.1 µM [rising, single point]"
CCC(=O)NC(c1cccs1)c1cc([N+](=O)[O-])c2cccnc2c1O (configuration not stated),,"7.08 µM [rising, full curve]"
COc1cccc(CNC(=O)c2ccc3nc(CCc4ccccc4)oc3c2)c1OC,"12.6 µM [falling, partial curve]",
COc1ccc2c(c1)C(=O)[C@H](O)[C@@H](c1ccc(OC)c(Br)c1)O2,"22.4 µM [rising, single point]",

# Sorted by length of the SMILES (low to high): part of the list above
Structure (SMILES),AC50 [1],AC50 [2]
CCCCNC(=S)NCc1ccc2[nH]c(C)cc2c1,,"20 µM [rising, single point]"
Cc1ccccc1NC(=O)C(NC1CCCCC1)C(C)C (configuration not stated),"0.0891 µM [falling, full curve, poor fit]","0.0891 µM [falling, full curve]"
O=C(CSC1=NCCN1)NC12CC3CC(CC(C3)C1)C2,"14.1 µM [rising, single point]","15.8 µM [rising, partial curve]"
CCCCCCNC(=O)CC(c1ccccc1)c1cc(Br)ccc1O (configuration not stated),"35.5 µM [falling, single point]","35.5 µM [falling, single point]"
CCC(=O)NC(c1cccs1)c1cc([N+](=O)[O-])c2cccnc2c1O (configuration not stated),,"7.08 µM [rising, full curve]"
COc1ccc(CC(=O)Nc2ccc(-c3ccc4nnc(C)n4n3)cc2)cc1OC,,"14.1 µM [rising, single point]"
COc1cc(C(=O)N/N=C\c2ccccc2)c([N+](=O)[O-])c(OC)c1OC,,"35.5 µM [rising, single point]"
COc1ccc2c(c1)C(=O)[C@H](O)[C@@H](c1ccc(OC)c(Br)c1)O2,"22.4 µM [rising, single point]",
COc1ccc(CNC(=O)c2cc3c(=O)n(Cc4ccc(OC)cc4)ccc3nc2C)cc1,,"35.5 µM [falling, single point]"
CC(c1ccccc1)n1c(SCC(=O)N2CC(=O)Nc3ccccc32)nc2ccccc2c1=O (configuration not stated),"35.5 µM [rising, single point]",
Cc1nn(-c2ccccc2)c(N2CCCC2)c1/C=N/NC(=O)c1cccc(S(=O)(=O)Nc2ccc(Cl)cc2)c1,,"28.2 µM [rising, single point]"

# Following part

Structure (SMILES),AC50 [1],AC50 [2]
N/C(=N\OC(=O)c1ccc(=O)n(Cc2ccc(Cl)cc2)c1)c1ccccn1,,"12.6 µM [falling, single point]"
O=C(Nc1cccc(F)c1)c1ccc(CSc2ccccc2)o1,,"12.6 µM [rising, partial curve]"
CSc1nnc(C)c(/C=C/Nc2ccc(F)cc2F)n1,,"17.8 µM [rising, single point]"
O=c1cc(-c2c(F)c(F)c(F)c(F)c2F)oc2ccccc12,,"20 µM [rising, single point]"
O=[N+]([O-])/C(C(Cl)=C(Cl)Cl)=C(\Nc1ccc(F)cc1)n1cncn1,"35.5 µM [rising, single point]",
COc1cc(/C=N/n2cnc3scc(-c4cccs4)c3c2=O)cc(OC)c1OC,,"7.94 µM [rising, partial curve]"
Cc1ccc2c(c1)C1CN(C)CCC1N2S(=O)(=O)c1ccc(Oc2ccc([N+](=O)[O-])cc2)cc1 (configuration not stated),"15.8 µM [falling, partial curve, poor fit]","17.8 µM [falling, partial curve]"
COC(CN(C(=O)CCl)C(C(=O)NC1CCCCC1)c1ccccc1C)OC (configuration not stated),,"22.4 µM [falling, single point]"
COc1ccccc1-c1nnc(-c2ccc(N3CCOCC3)cc2)o1,,"0.0447 µM [rising, full curve, poor fit]"
O=C(Nc1nnc(SCC(=O)N2CCOCC2)s1)c1ccccc1,"11.2 µM [rising, single point]",
CCSc1nnc(NC(=O)c2cccc(S(=O)(=O)N(C)c3ccccc3)c2)s1,,"35.5 µM [rising, single point]"
Cc1ccc(-c2nc3ncccc3o2)cc1NC(=O)c1cccnc1,,"0.794 µM [rising, partial curve, poor fit]"
COc1ccc(CCN2C(=O)CN(C3CCCCCC3)C(=O)C2c2ccc(Cl)cc2)cc1OC (configuration not stated),"7.94 µM [falling, full curve, poor fit]","20 µM [falling, partial curve, poor fit]"
COc1cc(/C=N/NC(N)=S)ccc1OCC(=O)Nc1ccc(C)c(C)c1,,"6.31 µM [rising, single point]"
Cc1cc(C)nc(SC2c3cccc4cccc(c34)C2NS(=O)(=O)c2ccccc2)n1 (configuration not stated),"31.6 µM [rising, single point]","35.5 µM [rising, single point]"
Cc1ccc(SCc2nc3ccccc3n2CC(=O)Nc2ccccc2)cc1,"11.2 µM [falling, partial curve]","11.2 µM [falling, partial curve]"
O=C(Nc1ccc(Cl)cc1)c1ccsn1,,"2.51 µM [rising, single point]"
CC(C)[C@H](NC(=O)c1ccccc1)C(=O)OCC(=O)/C=C1/N(C)c2ccccc2C1(C)C,"28.2 µM [rising, single point]","31.6 µM [rising, single point]"
